The source of these data is patent US20180360767A1, “BIOCOMPATIBLE PARTICLES AND METHODS OF MAKING AND USE THEREOF” (priority 2015, published 2018).

The subject of series [1] is HeLa cells. As to the kind of experiment: In vitro cytotoxicity, MTT assay. The conditions noted are these: Homo sapiens, 24 h treatment, doxorubicin concentration, read-out: half-maximal inhibitory concentration (IC50). The class given is cell-based. As to the method:
HeLa cells (1×10^4 cells per well) were seeded in the 96-well plates. […] After 4 h of incubation, the medium was removed, and the cells were mixed with 150 μl of dimethyl sulfoxide. The absorbance was measured at a test wavelength of 570 nm and a reference wavelength of 630 nm by a microplate reader (Infinite […], Tecan).
A general note: Tetrazolium assays rely on reduction of a dye to a coloured formazan, in cell work by metabolically active cells.

The conditions of series [2]: pH range of 2.5 to 8; cited from earlier work.

Converted amounts (≈) assume the structure as drawn.

On to `COc1cccc2c1C(=O)c1c(O)c3c(c(O)c1C2=O)C[C@@](O)(C(=O)CO)C[C@@H]3O[C@H]1C[C@H](N)[C@H](O)[C@H](C)O1` [Doxorubicin], for which the IC50 in series [1] was 1.33 µg/mL (≈ 2.45 µM).
As to `CC(=O)O[C@H]1C(=O)[C@@]2(C)[C@H]([C@H](OC(=O)c3ccccc3)[C@]3(O)C[C@H](OC(=O)[C@H](O)[C@@H](NC(=O)c4ccccc4)c4ccccc4)C(C)=C1C3(C)C)[C@]1(OC(C)=O)CO[C@@H]1C[C@@H]2O` [Paclitaxel], in series [2], the “solubility change with pH” value is listed as “insignificant solubility change”.
